PubChem BioAssay AID504786 | Drosophila RNAi Screening Center, 2011
In all, the deposit lists about 21,000 reagents; below is an unselected part of those with a known target gene and a result. 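Primary screen; positive scores mean lost reporter signal, so the sign may be inverted from the usual convention.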 Reagents against one gene are numbered here. A plus sign joins genes that one reagent is predicted to hit. Reagent sequences are not shown.

Purpose: 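Knock-downs reducing HIF reporter induction by the iron chelator DFO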 (primary screen)
System: Drosophila S2 cells with a stable HIF luciferase reporter
Reagent: long dsRNA against Drosophila genes, about 0.2 µg dsRNA per well of a 384-well plate
Timing: three days of knock-down, then 20 h of DFO before reading
Treatment: desferrioxamine (DFO) at 100 µM, an iron chelator that mimics hypoxia, for 20 h
Measurement: 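HIF reporter luminescence in cells given 100 µM DFO for 20 h, using the mouse ldh-a hypoxia-response element, scored as per-plate z-scores; higher means greater loss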
Direction: z-score: higher = stronger loss of HIF reporter signal

Gene,reagent,"z-score, replicate 1","z-score, replicate 2","z-score, replicate 3","z-score, replicate 4"
Rok,1,-0.2,-0.4,,
CG4456 + Hsp22,1,-0.3,0,,
CG4456 + Hsp22,2,-0.2,-0.6,,
Sln,1,-0.6,-0.7,,
CG11178,1,0,-0.1,,
CG4613,1,-0.2,-0.4,,
Snx21,1,-0.3,-0.4,,
mTerf3,1,-0.3,-0.5,,
nocte,1,-0.6,-1.5,,
Pyroxd1,1,-0.1,-0.4,,
RAF2,1,-0.5,-0.4,,
RAF2,2,-0.6,-1.2,,
Grip71,1,0.1,0.2,,
CG3339,1,-0.1,-0.1,,
CG3339,2,-0.4,-0.5,,
CG10508,1,-0.2,-0.4,,
CG10508,2,-0.2,-0.1,,
CG30383,1,-0.1,0,,
egh,1,-0.4,0.9,,
SkpB,1,-0.5,0.1,,
betaTub60D,1,-0.4,-0.4,,
wts,1,4.3,1,,
E(spl)m2-BFM,1,-0.7,-0.5,,
CG3420,1,-0.2,2.2,,
Sec31,1,-0.2,-0.4,,
Tektin-A,1,-0.3,-0.5,,
CG11109,1,-0.2,0,,
Cbs,1,-0.3,-0.3,,
emb,1,-0.2,0,,
lov,1,-0.3,-0.1,,
lov,2,-0.3,-0.5,,
Uxt,1,-0.2,-0.2,,
CR16735,1,-0.3,-0.2,,
CG31789,1,0.7,0.1,,
CG31689,1,0.1,0.5,,
CG13457,1,-0.3,0.3,,
CG10803,1,-0.2,0.3,,
CG33125,1,-0.2,0,,
CG2975,1,-0.1,-0.2,,
CG18171,1,-0.2,-0.3,,
Hsepi,1,-0.3,-0.3,,
Lhr,1,-0.1,-0.1,,
CG12782,1,-0.3,0,,
Fatp2,1,0,0.2,,
Fatp2,2,-0.3,-0.5,,
Fatp2,3,-0.4,-0.3,,
puc,1,0.6,0.5,,
mge,1,0.5,0.5,,
Pnn,1,-0.1,-0.1,,
scaf,1,-0.3,0.5,,
Gart,1,-0.2,-0.3,,
tyn,1,-0.4,-0.8,,
CG13561,1,-0.3,-0.4,,
Kif3C,1,-0.3,-0.2,,
Kif3C,2,-0.3,-0.2,,
Fak,1,-0.4,-0.7,,
ITP,1,-0.2,-0.1,,
bigmax,1,-0.3,-0.7,,
CG13484,1,0,0.4,,
CG15255,1,-0.2,0.7,,
mRpL51,1,1.5,0.3,,
CG12402,1,-0.3,-0.6,,
CG43386,1,-0.2,-0.9,,
CG34460,1,-0.2,0.4,,
gbb,1,-0.4,-0.2,,
Cyp6w1,1,-0.2,-0.5,,
CG8617,1,-0.1,-0.2,,
ph-p,1,-0.4,-0.3,,
CG12075,1,-0.3,-0.8,,
sel,1,-0.3,-0.5,-0.4,-0.2
CG18641,1,-0.3,-0.5,,
CG30001,1,-0.3,-0.2,,
CG1394,1,0,-0.8,,
ocm,1,0.1,-0.1,,
CG10357,1,-0.2,-0.5,,
eIF2D,1,-0.1,0,,
Polr3A,1,0.6,1.7,,
CG14130,1,0,-0.3,,
Tango9,1,-0.1,-0.2,,
lgs,1,-0.1,-0.1,,
CG34345,1,-0.3,-0.2,,
CG4465,1,-1,-0.6,,
Traf-like,1,-0.3,-0.5,,
